# Results: publication PMC10993510
# Results are given in words; binding and its absence hold for the method and conditions named. Tags and fused reporters may be left off the sequences shown.
# Tests used:
# Assay in all cases: SEC; Superose 6 Increase 10/300 column, last step of the purification; elution in 150 mM NaCl, 25 mM Hepes pH 7.5, 1 mM DTT; both purified
# [1] = target: Faa1-WT-EGFP (S. cerevisiae) (UniProt P30624)
# [2] = target: Faa1-4D-EGFP (S. cerevisiae) (UniProt P30624)
# [3] = target: Faa1-6D-EGFP (S. cerevisiae) (UniProt P30624)
binder,measurement,setting,value
"Faa1-WT-EGFP (enzyme, UniProt P30624 1-700) MVAQYTVPVGKAANEHETAPRRNYQCREKPLVRPPNTKCSTVYEFVLECFQKNKNSNAMGWRDVKEIHEESKSVMKKVDGKETSVEKKWMYYELSHYHYNSFDQLTDIMHEIGRGLVKIGLKPNDDDKLHLYAATSHKWMKMFLGAQSQGIPVVTAYDTLGEKGLIHSLVQTGSKAIFTDNSLLPSLIKPVQAAQDVKYIIHFDSISSEDRRQSGKIYQSAHDAINRIKEVRPDIKTFSFDDILKLGKESCNEIDVHPPGKDDLCCIMYTSGSTGEPKGVVLKHSNVVAGVGGASLNVLKFVGNTDRVICFLPLAHIFELVFELLSFYWGACIGYATVKTLTSSSVRNCQGDLQEFKPTIMVGVAAVWETVRKGILNQIDNLPFLTKKIFWTAYNTKLNMQRLHIPGGGALGNLVFKKIRTATGGQLRYLLNGGSPISRDAQEFITNLICPMLIGYGLTETCASTTILDPANFELGVAGDLTGCVTVKLVDVEELGYFAKNNQGEVWITGANVTPEYYKNEEETSQALTSDGWFKTGDIGEWEANGHLKIIDRKKNLVKTMNGEYIALEKLESVYRSNEYVANICVYADQSKTKPVGIIVPNHAPLTKLAKKLGIMEQKDSSINIENYLEDAKLIKAVYSDLLKTGKDQGLVGIELLAGIVFFDGEWTPQNGFVTSAQKLKRKDILNAVKDKVDAVYSSS",binding,[1],no binding
"Faa1-4D-EGFP (enzyme, UniProt P30624 1-700) MVAQYTVPVGKAANEHETAPRRNYQCREKPLVRPPNTKCSTVYEFVLECFQKNKNSNAMGWRDVKEIHEESKSVMKKVDGKETSVEKKWMYYELSHYHYNSFDQLTDIMHEIGRGLVKIGLKPNDDDKLHLYAATSHKWMKMFLGAQSQGIPVVTAYDTLGEKGLIHSLVQTGSKAIFTDNSLLPSLIKPVQAAQDVKYIIHFDSISSEDRRQSGKIYQSAHDAINRIKEVRPDIKTFSFDDILKLGKESCNEIDVHPPGKDDLCCIMYTSGSTGEPKGVVLKHSNVVAGVGGASLNVLKFVGNTDRVICFLPLAHIFELVFELLSFYWGACIGYATVKTLTSSSVRNCQGDLQEFKPTIMVGVAAVWETVRKGILNQIDNLPFLTDDIFWTAYNTKLNMQRLHIPGGGALGNLVFKKIRTATGGQLRYLLNGGSPISRDAQEFITNLICPMLIGYGLTETCASTTILDPANFELGVAGDLTGCVTVKLVDVEELGYFAKNNQGEVWITGANVTPEYYKNEEETSQALTSDGWFKTGDIGEWEANGHLKIIDRKKNLVKTMNGEYIALEKLESVYRSNEYVANICVYADQSKTKPVGIIVPNHAPLTKLAKKLGIMEQKDSSINIENYLEDAKLIDAVYSDLLKTGDDQGLVGIELLAGIVFFDGEWTPQNGFVTSAQKLKRKDILNAVKDKVDAVYSSS",binding,[2],no binding
"Faa1-6D-EGFP (enzyme, UniProt P30624 1-700) MVAQYTVPVGKAANEHETAPRRNYQCREKPLVRPPNTKCSTVYEFVLECFQKNKNSNAMGWRDVKEIHEESKSVMKKVDGKETSVEKKWMYYELSHYHYNSFDQLTDIMHEIGRGLVKIGLKPNDDDKLHLYAATSHKWMKMFLGAQSQGIPVVTAYDTLGEKGLIHSLVQTGSKAIFTDNSLLPSLIKPVQAAQDVKYIIHFDSISSEDRRQSGKIYQSAHDAINRIKEVRPDIKTFSFDDILKLGKESCNEIDVHPPGKDDLCCIMYTSGSTGEPKGVVLKHSNVVAGVGGASLNVLKFVGNTDRVICFLPLAHIFELVFELLSFYWGACIGYATVKTLTSSSVRNCQGDLQEFKPTIMVGVAAVWETVRKGILNQIDNLPFLTDDIFWTAYNTKLNMQRLHIPGGGALGNLVFKKIRTATGGQLRYLLNGGSPISRDAQEFITNLICPMLIGYGLTETCASTTILDPANFELGVAGDLTGCVTVKLVDVEELGYFAKNNQGEVWITGANVTPEYYKNEEETSQALTSDGWFKTGDIGEWEANGHLKIIDRKKNLVKTMNGEYIALEKLESVYRSNEYVANICVYADQSKTKPVGIIVPNHAPLTKLAKDLGIMEQDDSSINIENYLEDAKLIDAVYSDLLKTGDDQGLVGIELLAGIVFFDGEWTPQNGFVTSAQKLKRKDILNAVKDKVDAVYSSS",binding,[3],no binding
